These results are taken from publication doi:10.1101/2022.06.06.494494.

Protein sequences, listed by entry. Tags and fused reporters are not part of them.
UniProt P52630: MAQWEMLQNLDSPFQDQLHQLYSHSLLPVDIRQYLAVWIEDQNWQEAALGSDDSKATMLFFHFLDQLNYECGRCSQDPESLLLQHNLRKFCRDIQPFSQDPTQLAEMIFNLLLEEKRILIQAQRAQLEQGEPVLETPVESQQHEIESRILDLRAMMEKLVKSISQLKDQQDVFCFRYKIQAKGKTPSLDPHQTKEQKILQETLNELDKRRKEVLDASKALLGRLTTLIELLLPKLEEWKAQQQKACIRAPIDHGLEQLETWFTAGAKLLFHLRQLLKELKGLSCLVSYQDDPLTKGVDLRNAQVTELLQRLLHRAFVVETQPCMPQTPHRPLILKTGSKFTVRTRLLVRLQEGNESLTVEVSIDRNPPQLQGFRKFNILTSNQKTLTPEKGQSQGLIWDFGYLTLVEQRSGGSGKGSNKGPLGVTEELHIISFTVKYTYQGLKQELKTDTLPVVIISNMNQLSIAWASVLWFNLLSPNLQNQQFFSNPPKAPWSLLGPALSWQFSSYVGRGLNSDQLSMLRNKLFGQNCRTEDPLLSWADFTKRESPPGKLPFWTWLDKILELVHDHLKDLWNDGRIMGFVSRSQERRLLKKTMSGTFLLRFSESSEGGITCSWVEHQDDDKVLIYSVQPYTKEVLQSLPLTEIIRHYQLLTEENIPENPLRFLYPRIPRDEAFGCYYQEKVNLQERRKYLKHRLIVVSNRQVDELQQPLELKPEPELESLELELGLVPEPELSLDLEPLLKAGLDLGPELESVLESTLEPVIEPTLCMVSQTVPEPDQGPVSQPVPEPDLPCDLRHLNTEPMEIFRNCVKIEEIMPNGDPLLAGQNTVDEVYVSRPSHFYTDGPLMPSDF

Test in all cases: co-IP
The target in experiment [1] is T1, HA-tagged IRF9 (UniProt Q00978).
T1 sequence: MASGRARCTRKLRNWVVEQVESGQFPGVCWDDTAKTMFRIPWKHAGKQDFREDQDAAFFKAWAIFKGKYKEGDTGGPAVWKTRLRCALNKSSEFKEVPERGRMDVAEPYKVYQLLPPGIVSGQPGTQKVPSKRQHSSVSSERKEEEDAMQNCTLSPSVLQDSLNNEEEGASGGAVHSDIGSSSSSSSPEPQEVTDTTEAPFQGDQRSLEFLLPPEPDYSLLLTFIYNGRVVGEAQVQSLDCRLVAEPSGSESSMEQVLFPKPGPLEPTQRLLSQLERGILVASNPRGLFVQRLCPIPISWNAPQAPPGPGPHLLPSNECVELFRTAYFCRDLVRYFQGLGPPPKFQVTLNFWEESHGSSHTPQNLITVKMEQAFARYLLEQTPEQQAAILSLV

The target in experiment [2] is HA-tagged STAT1 (UniProt P42224).
The target of experiment [3] is HA-tagged STAT2 (UniProt P52630).
The target of experiment [4] is T2, Flag-tagged IRF9, Q00978.
T2 chain: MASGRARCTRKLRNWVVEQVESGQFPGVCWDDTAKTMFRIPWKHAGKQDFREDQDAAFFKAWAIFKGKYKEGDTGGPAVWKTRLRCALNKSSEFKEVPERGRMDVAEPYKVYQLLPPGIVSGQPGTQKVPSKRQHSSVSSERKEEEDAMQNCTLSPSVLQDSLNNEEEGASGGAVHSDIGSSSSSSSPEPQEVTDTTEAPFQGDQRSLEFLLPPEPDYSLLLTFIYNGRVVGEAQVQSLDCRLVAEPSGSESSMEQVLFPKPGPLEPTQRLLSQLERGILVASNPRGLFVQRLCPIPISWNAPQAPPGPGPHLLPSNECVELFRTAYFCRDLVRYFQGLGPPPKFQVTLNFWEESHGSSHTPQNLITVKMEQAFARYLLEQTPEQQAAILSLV
As to conditions: remark: other sources report otherwise.

These are yes or no findings as the source states them, for the method shown. In cells and extracts the contact can be indirect. Some results given as binding are weak or reduced against the parent protein; the word gives no strength. For some of these results: Sequences can lack the tags named with a protein.

With “S2 domain (aa 688-1273) of SARS-CoV-2 S protein with Flag-tag (from UniProt P0DTC2 688-1273) (domain or fragment)”, the binding entry in experiment [1], in experiment [2] and in experiment [3] was “binds” each time.

B1: HA-tagged STAT1, P42224 1-750 (protein)
chain: MSQWYELQQLDSKFLEQVHQLYDDSFPMEIRQYLAQWLEKQDWEHAANDVSFATIRFHDLLSQLDDQYSRFSLENNFLLQHNIRKSKRNLQDNFQEDPIQMSMIIYSCLKEERKILENAQRFNQAQSGNIQSTVMLDKQKELDSKVRNVKDKVMCIEHEIKSLEDLQDEYDFKCKTLQNREHETNGVAKSDQKQEQLLLKKMYLMLDNKRKEVVHKIIELLNVTELTQNALINDELVEWKRRQQSACIGGPPNACLDQLQNWFTIVAESLQQVRQQLKKLEELEQKYTYEHDPITKNKQVLWDRTFSLFQQLIQSSFVVERQPCMPTHPQRPLVLKTGVQFTVKLRLLVKLQELNYNLKVKVLFDKDVNERNTVKGFRKFNILGTHTKVMNMEESTNGSLAAEFRHLQLKEQKNAGTRTNEGPLIVTEELHSLSFETQLCQPGLVIDLETTSLPVVVISNVSQLPSGWASILWYNMLVAEPRNLSFFLTPPCARWAQLSEVLSWQFSSVTKRGLNVDQLNMLGEKLLGPNASPDGLIPWTRFCKENINDKNFPFWLWIESILELIKKHLLPLWNDGCIMGFISKERERALLKDQQPGTFLLRFSESSREGAITFTWVERSQNGGEPDFHAVEPYTKKELSAVTFPDIIRNYKVMAAENIPENPLKYLYPNIDKDHAFGKYYSRPKEAPEPMELDGPKGTGYIKTELISVSEVHPSRLQTTDNLLPMSPEEFDEVSRIVGSVEFDSMMNTV
Take B1: in experiment [4], the binding result is on record as “binds”.
